Results taken from patent publication US7265263B1, “Potato transcription factors, methods of use thereof, and a method for enhancing tuber development” (Iowa State University Research Foundation, Inc., priority 2002, dated 2007).
No constants are given. Whether binding was seen depends on the method and setting. For some assays here: In cells and extracts the contact can be indirect. Some binding calls cover weakened binding; strength is not graded here. Tags and fused reporters may be left off the sequences shown.

What was measured:
[1] = biological target: T1, GAD:POTH1 fusion protein (Solanum tuberosum); test: in vitro translated 35S-labelled proteins, co-immunoprecipitation with anti-GAD antibodies, SDS-PAGE autoradiography
T1 construct: 35S-methionine labelled, made by in vitro transcription/translation for the immunoprecipitation; also called POTH1:GAD
T1 chain: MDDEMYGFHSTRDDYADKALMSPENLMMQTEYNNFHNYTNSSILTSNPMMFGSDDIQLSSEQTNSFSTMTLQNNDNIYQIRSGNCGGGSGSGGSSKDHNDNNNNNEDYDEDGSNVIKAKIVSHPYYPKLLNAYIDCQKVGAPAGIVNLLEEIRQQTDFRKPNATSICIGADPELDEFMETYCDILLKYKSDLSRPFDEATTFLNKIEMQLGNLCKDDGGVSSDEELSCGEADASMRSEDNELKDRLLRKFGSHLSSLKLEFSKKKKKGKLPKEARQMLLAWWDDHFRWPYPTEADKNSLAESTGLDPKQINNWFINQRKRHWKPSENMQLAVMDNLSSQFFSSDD
Description: (§1) In vitro binding experiments were performed as described by Ni et al., "PIF3, a Phytochrome-Interacting Factor Necessary for Normal Photoinduced Signal Transduction, is a Novel Basic *Helix*-Loop-Helix Protein," *Cell* 95:657-667 (1998), which is hereby incorporated by reference in its entirety. The full-length sequence for POTH1 was cloned into a pET17b/GAD fusion cassette and transcribed under the control of the T7 promoter. The BEL cDNAs were cloned into pGEM11Z vectors and were transcribed under the control of the T7 promoter. ^35S-methionine labeled bait and prey proteins were synthesized using the TnT in vitro transcription-translation kit (Promega) according to the manufacturer's protocols. Each 50 μl TnT reaction contained 2.0 μg of template plasmid DNA and 20 μmol (20 μCi) of labeled ^35S-methionine. The POTH1:GAD/BEL complex was immunoprecipitated with anti-GAD antibodies (Santa Cruz Biotechnology, Calif.). The proteins from the pellet (one-half the fraction) and for the prey (one-fourth of the reaction volume) were resolved on a 10% SDS-PAGE gel and visualized by autoradiography.

[2] = biological target: T1, GAD:POTH1 fusion protein; test: in vitro transcription/translation, immunoprecipitation assay
Description: as §1

B1: StBEL-05 protein from pGEM11Z (in vitro transcription/translation) (other)
chain: MYYQGTSDNTNIQADHQQRHNHGNSNNNNIQTLYLMNPNNYMQGYTTSDTQQQQQLLFLNSSPAASNALCHANIQHAPLQQQHFVGVPLPAVSLHDQINHHGLLQRMWNNQDQSQQVIVPSSTGVSATSCGGITTDLASQLAFQRPIPTPQHRQQQQQQGGLSLSLSPQLQQQISFNNNISSSSPRTNNVTIRGTLDGSSSNMVLGSKYLKAAQELLDEVVNIVGKSIKGDDQKKDNSMNKESMPLASDVNTNSSGGGESSSRQKNEVAVELTTAQRQELQMKKAKLLAMLEEVEQRYRQYHHQMQIIVLSFEQVAGIGSAKSYTQLALHAISKQFRCLKDAIAEQVKATSKSLGEEEGLGGKIEGSRLKFVDHHLRQQRALQQIGMMQPNAWRPQRGLPERAVSVLRAWLFEHFLHPYPKDSDKIMLAKQTGLTRSQVSNWFINARVRLWKPMVEEMYLEEVKNQEQNSTNTSGDNKNKETNISAPNEEKHPIITSSLLQDGITTTQAEISTSTISTSPTAGASLHHAHNFSFLGSFNMDNTTTTVDHIENNAKKQRNDMHKFSPSSILSSVDMEAKARESSNKGFTNPLMAAYAMGDFGRFDPHDQQMTANFHGNNGVSLTLGLPPSENLAMPVSQQNYLSNDLGSRSEMGSHYNRMGYENIDFQSGNKRFPTQLLPDFVTGNLGT
notes: 35S-methionine labelled prey; also called p11Z-5
- binding [1]: binds
- binding [2]: binds
